Binding screen against folded nucleic acids

Data from the ROBIN nucleic acid binder screens, doi:10.1002/anie.202211358.

Oligonucleotides screened, 5′ to 3′:
PreQ1: PreQ1 riboswitch RNA pseudoknot, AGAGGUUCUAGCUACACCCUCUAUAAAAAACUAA. From B. subtilis. About 24,000 compounds screened, about 170 hits.
SAM-II: SAM-II riboswitch RNA pseudoknot, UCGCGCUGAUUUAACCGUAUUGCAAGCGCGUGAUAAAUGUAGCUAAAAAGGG. About 21,000 compounds screened, about 200 hits.
TPP: TPP riboswitch RNA three-way junction, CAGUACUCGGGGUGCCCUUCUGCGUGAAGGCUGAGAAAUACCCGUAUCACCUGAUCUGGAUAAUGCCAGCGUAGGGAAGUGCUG. About 24,000 compounds screened, about 160 hits.

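Compounds were printed on reactive glass slides in duplicate spots, a dye-labelled oligonucleotide was laid over them, and the fluorescence left after washing was read. For the PreQ1, TPP and SAM-II riboswitches the laboratory earlier reported (doi:10.1038/s41467-019-09493-3) 1 µM RNA, 2 h, and a rule that included a mean Z-score above 3 (spot signal-to-noise against the whole library), a score well above that on a control array, and duplicate spots agreeing (coefficient of variation under 100). The data file gives only the calls; its cut-offs may differ, and compounds hitting several targets are kept. These are primary screening calls, not affinities; a compound without a hit may have attached poorly or may still bind in solution.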
“hit” means called a hit, “none” means screened and not called a hit.
Compounds were drawn at random from those tested, without regard to their results.
A dash means that no call is listed here.

Compound | PreQ1 | SAM-II | TPP
CCCCCn1c(N)c(C(=O)OC)c2nc3ccccc3nc21 | none | none | none
CCCn1c(C)c(C)c(S(=O)(=O)c2ccccc2)c1N | none | none | none
CC(C(=O)N1CCc2c(c(C(=O)O)nn2CCO)C1)n1cnc2ccccc21 (stereo not drawn) | none | none | none
CC[n+]1cn(CC(O)COc2ccc(OC)cc2)c2ccccc21 (stereo not drawn) | none | none | none
Cc1nc(N)sc1C | none | none | none
CNCCOCC(O)CSc1ccccc1 (stereo not drawn) | none | none | none
C=CCC1(CO)CCCN(Cc2ccc(-c3ccc(OC)cc3)o2)C1 (stereo not drawn) | none | none | none
CC(=O)c1ccc(Nc2ccnc3cc(C(F)(F)F)ccc23)cc1 | none | none | none
CCOCCN1CCC[C@]2(C(=O)O)CN(c3nccc(N)n3)CC[C@@H]12 | none | none | none
CCOC(=O)c1ccc(Nc2ncnc(N)n2)cc1 | none | none | none
Cc1[nH]c2ccc(CNC(=O)c3ccc(N)nc3)cc2c1C | none | none | none
COc1ccc(CNCCN2CCNCC2)cc1Cl | none | none | none
Cc1nc(C2CCCNC2)cc(N(C)CCc2ccccc2)n1 (stereo not drawn) | none | none | none
c1ccc(N2CCC(NCc3cc(-c4ccco4)on3)C2)cc1 (stereo not drawn) | none | none | none
COCC(=O)N1CCC(C(=O)N[C@H]2Cc3ccccc3[C@@H]2N)CC1 | none | none | none
Cc1ccc(-c2c(C(F)(F)F)nn3c(NCc4cccnc4)cc(C)nc23)cc1 | none | - | none
CCn1nc(C(O)c2ccccc2)nc1COc1ccc(C(C)=O)cc1 (stereo not drawn) | none | none | none
COc1ccc(C2C(C#N)=C(N)OC3=C2S(=O)(=O)N(Cc2ccccc2)c2ccccc23)cc1 (stereo not drawn) | none | - | none
CC1(C)CCCC(C)(C#CCN2CCN(CCO)CC2)O1 (stereo not drawn) | none | none | none
C=CCNc1ncccc1-c1nc(-c2ccc(Cl)cc2)no1 | none | - | none
CCOC(=O)c1sc2nc(C)cc(COC)c2c1N | none | none | none
CCOC(=O)C1CCN(c2c(NCc3ccc(Cl)cc3)c(=O)c2=O)CC1 | none | none | none
COC(=O)COc1cc(-c2ccc(F)cc2)nc2ccc(N)cc12 | none | none | none
c1csc(CCNc2nn3cnnc3c3ccccc23)c1 | none | - | none
COc1cc(C2C(C#N)=C(N)OC3=C2C(=O)CCC3)cc(OC)c1OC (stereo not drawn) | none | none | none
CCC(O)c1nc2ccccc2n1Cc1ccc(F)cc1 (stereo not drawn) | none | - | none
CC(=O)c1ccc(OCC(O)Cn2c(CO)nc3ccccc32)cc1 (stereo not drawn) | none | none | none
CN(C)c1ccc(C(=O)NCCCCCCC(=O)NO)cc1 | none | none | none
Cc1ccc2nc(-c3cccnc3)c(Nc3ccc(Cl)cc3)n2c1 | none | none | none
N[C@H]1CN(S(=O)(=O)c2ccc(-c3ccccc3)cc2)C[C@@H]1C1CC1 | none | none | none
COCCCNc1c(-c2cc(C)c(C)cc2C)c(=O)c1=O | none | - | none
CC(CCc1ccccc1)NCc1ccc2c(c1)n(C)c(=O)n2C (stereo not drawn) | none | - | none
COc1ccccc1Nc1nc(N)nc(CSc2ncccn2)n1 | none | none | none
COC(=O)c1c(N)sc(C(=O)Nc2ccccc2OC)c1C | none | none | none
O=C1C=C(NC2CCCCC2)CC(c2ccccc2)C1 (stereo not drawn) | none | none | none
CC1CCN(C(=O)c2ccc(CNc3c(N4CCC(C)CC4)c(=O)c3=O)cc2)CC1 | none | - | none
CCN1CCCC1Cn1c(C)c(C)c(S(=O)(=O)c2ccc(F)cc2)c1N (stereo not drawn) | none | none | none
Cc1c(C(=O)NN=Cc2cccnc2)sc(N)c1C#N | none | none | none
CC(=O)SCC(Cc1ccccc1)C(=O)NCC(=O)OCc1ccccc1 (stereo not drawn) | none | none | none
Oc1cccc(-c2nc3cnccn3c2Nc2ccc(F)cc2)c1 | none | - | none
O=S(=O)(c1ccccc1)c1cnc2ccc(F)cc2c1NCc1ccccc1 | none | - | none
OCc1csc(N2CCC(CCn3cccn3)CC2)n1 | none | none | none
CCC(CO)N(Cc1ccccn1)Cc1c[nH]nc1-c1ccc(F)cc1 (stereo not drawn) | none | none | none
O=C(NCc1cccnc1Oc1ccc(F)c(F)c1)[C@@H]1Cc2ccccc2N1 | none | none | none
COCc1nc2ccccc2n1CC(O)COc1ccccc1C (stereo not drawn) | none | - | none
C=CCOC(=O)C1=C(C)OC(N)=C(C(=O)OCCCC)C12C(=O)Nc1ccccc12 (stereo not drawn) | none | none | none
COc1ccc(N2C(=O)c3cccnc3C2Nc2ccc(F)cc2Cl)cc1 (stereo not drawn) | none | - | none